Laboratory results reported in publication doi:10.1101/333070.
Results are given in words; binding and its absence hold for the method and conditions named. Some binding calls cover weakened binding; strength is not graded here. Tags and fused reporters may be left off the sequences shown.

T1: mouse NGF pro-domain (NGFpd), residues 19-121 of mouse β-proNGF (mouse) (UniProt P01139)
T1 sequence: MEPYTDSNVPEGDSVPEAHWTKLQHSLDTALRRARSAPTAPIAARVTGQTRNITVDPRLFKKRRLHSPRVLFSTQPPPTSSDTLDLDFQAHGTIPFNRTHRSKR


What was measured:
[1] = target: T1, mouse NGF pro-domain (NGFpd), residues 19-121 of mouse β-proNGF (mouse); test: NMR titration
[2] = target: mature mouse nerve growth factor (NGF) (mouse) (UniProt P01139); test: NMR titration
[3] = target: mature mouse nerve growth factor (NGF) (mouse) (UniProt P01139); test: NMR paramagnetic relaxation enhancement

Row | Molecule | binding [3] | also measured
1 | mature mouse nerve growth factor (NGF) (from UniProt P01139 122-241) (ligand) | – | binding [1]: binds weakly
2 | mouse NGF pro-domain (NGFpd), residues 19-121 of mouse β-proNGF (domain or fragment, UniProt P01139 19-121) MEPYTDSNVPEGDSVPEAHWTKLQHSLDTALRRARSAPTAPIAARVTGQTRNITVDPRLFKKRRLHSPRVLFSTQPPPTSSDTLDLDFQAHGTIPFNRTHRSKR | – | binding [2]: binds weakly
3 | NGFpdE19C-MTSL (domain or fragment, UniProt P01139 19-121, MTSL nitroxide spin label on Cys19) MCPYTDSNVPEGDSVPEAHWTKLQHSLDTALRRARSAPTAPIAARVTGQTRNITVDPRLFKKRRLHSPRVLFSTQPPPTSSDTLDLDFQAHGTIPFNRTHRSKR | binds | –
4 | NGFpdS24C-MTSL (domain or fragment, UniProt P01139 19-121, MTSL nitroxide spin label on Cys24) MEPYTDCNVPEGDSVPEAHWTKLQHSLDTALRRARSAPTAPIAARVTGQTRNITVDPRLFKKRRLHSPRVLFSTQPPPTSSDTLDLDFQAHGTIPFNRTHRSKR | binds | –
5 | NGFpdS90C-MTSL (domain or fragment, UniProt P01139 19-121, MTSL nitroxide spin label on Cys90) MEPYTDSNVPEGDSVPEAHWTKLQHSLDTALRRARSAPTAPIAARVTGQTRNITVDPRLFKKRRLHSPRVLFCTQPPPTSSDTLDLDFQAHGTIPFNRTHRSKR | binds | –
